For 4 molecules, binding results are on record in publication PMC9170289.

These are yes or no findings as the source states them, for the method shown. Some results given as binding are weak or reduced against the parent protein; the word gives no strength.

Experiment in all cases: two-hybrid; GAL4(DB) fusion and GAL4(AD) fusion cotransformed into the wild-type tester strain GGY1::171; X-Gal colony colour on SSX plates, 30°C; pairs said to be unaffected were also tested in upf1Δ, pat1Δ, scd6Δ, edc3Δ or dcp2-N245 derivatives
Test [1] concerns the target T1, Dcp2, wild-type full length (S. cerevisiae), P53550.
T1 chain: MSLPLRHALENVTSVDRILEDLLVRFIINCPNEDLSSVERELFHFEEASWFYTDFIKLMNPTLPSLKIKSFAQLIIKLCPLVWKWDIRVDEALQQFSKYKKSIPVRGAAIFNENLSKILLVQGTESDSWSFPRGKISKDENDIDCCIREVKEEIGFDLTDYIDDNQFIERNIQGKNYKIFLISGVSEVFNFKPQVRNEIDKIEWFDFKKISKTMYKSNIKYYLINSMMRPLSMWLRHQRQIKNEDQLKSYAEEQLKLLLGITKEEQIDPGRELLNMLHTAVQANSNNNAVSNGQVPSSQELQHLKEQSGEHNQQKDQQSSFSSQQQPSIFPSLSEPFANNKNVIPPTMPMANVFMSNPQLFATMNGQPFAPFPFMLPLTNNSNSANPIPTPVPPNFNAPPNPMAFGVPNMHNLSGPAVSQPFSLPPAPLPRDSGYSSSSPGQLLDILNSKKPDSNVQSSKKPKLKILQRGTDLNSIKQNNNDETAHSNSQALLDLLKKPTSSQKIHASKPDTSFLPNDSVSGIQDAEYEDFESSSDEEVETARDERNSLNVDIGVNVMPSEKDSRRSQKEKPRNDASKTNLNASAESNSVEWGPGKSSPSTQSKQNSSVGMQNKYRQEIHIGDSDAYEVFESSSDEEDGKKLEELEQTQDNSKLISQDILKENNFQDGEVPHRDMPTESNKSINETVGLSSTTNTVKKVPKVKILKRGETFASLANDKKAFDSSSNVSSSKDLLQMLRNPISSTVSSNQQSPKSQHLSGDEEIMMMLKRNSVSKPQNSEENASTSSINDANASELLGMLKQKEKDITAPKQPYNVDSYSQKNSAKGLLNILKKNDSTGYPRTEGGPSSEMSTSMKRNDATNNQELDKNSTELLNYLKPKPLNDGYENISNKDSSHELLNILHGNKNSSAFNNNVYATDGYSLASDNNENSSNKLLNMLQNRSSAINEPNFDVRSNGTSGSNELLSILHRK
The settings on record: remark: other sources report otherwise.

The target in test [2] is T2, Dcp2, wild-type full length (S. cerevisiae) (UniProt P53550).
T2 sequence: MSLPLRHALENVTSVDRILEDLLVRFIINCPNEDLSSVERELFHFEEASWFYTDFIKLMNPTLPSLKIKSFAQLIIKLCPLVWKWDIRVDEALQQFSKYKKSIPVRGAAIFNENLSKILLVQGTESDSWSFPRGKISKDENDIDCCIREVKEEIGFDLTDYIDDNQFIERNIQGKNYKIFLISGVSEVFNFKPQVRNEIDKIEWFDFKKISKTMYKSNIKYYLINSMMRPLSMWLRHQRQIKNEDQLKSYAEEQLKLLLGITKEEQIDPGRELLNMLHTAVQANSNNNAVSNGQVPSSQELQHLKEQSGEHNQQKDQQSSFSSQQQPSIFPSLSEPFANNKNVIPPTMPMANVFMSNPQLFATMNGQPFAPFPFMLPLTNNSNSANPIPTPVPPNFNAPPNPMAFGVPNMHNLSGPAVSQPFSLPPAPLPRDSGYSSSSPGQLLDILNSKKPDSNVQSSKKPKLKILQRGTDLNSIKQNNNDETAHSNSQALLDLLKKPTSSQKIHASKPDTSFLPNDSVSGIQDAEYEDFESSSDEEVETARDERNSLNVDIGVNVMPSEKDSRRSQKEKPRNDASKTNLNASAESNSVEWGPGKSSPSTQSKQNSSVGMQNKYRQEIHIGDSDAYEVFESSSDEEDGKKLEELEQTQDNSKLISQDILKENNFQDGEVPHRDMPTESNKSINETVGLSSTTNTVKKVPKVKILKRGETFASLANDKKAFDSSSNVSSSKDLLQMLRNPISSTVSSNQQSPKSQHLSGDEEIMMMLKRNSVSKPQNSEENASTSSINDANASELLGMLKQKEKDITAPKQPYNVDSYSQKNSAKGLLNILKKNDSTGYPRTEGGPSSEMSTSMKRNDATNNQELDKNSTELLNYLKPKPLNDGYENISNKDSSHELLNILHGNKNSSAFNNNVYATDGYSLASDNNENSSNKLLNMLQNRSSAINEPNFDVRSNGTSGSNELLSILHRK

The target in test [3] is T3, Dhh1 (S. cerevisiae), P39517.
T3 chain: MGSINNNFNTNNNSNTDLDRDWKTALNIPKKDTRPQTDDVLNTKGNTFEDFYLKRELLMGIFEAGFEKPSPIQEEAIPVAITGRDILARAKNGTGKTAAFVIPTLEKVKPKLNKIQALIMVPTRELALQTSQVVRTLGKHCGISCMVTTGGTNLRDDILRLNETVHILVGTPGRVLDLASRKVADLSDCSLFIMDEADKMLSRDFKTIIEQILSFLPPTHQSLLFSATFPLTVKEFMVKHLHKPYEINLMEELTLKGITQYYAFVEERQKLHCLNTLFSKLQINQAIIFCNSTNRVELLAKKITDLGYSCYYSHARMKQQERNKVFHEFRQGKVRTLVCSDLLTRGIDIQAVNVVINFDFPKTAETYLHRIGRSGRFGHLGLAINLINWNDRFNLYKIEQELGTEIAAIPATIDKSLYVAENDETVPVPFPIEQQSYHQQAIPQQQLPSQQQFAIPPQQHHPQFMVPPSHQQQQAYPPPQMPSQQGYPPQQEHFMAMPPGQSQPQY
The conditions noted are these: remark: other sources report otherwise.

B1: Upf1, P30771 1-971 (protein)
chain: MVGSGSHTPYDISNSPSDVNVQPATQLNSTLVEDDDVDNQLFEEAQVTETGFRSPSASDNSCAYCGIDSAKCVIKCNSCKKWFCNTKNGTSSSHIVNHLVLSHHNVVSLHPDSDLGDTVLECYNCGRKNVFLLGFVSAKSEAVVVLLCRIPCAQTKNANWDTDQWQPLIEDRQLLSWVAEQPTEEEKLKARLITPSQISKLEAKWRSNKDATINDIDAPEEQEAIPPLLLRYQDAYEYQRSYGPLIKLEADYDKQLKESQALEHISVSWSLALNNRHLASFTLSTFESNELKVAIGDEMILWYSGMQHPDWEGRGYIVRLPNSFQDTFTLELKPSKTPPPTHLTTGFTAEFIWKGTSYDRMQDALKKFAIDKKSISGYLYYKILGHQVVDISFDVPLPKEFSIPNFAQLNSSQSNAVSHVLQRPLSLIQGPPGTGKTVTSATIVYHLSKIHKDRILVCAPSNVAVDHLAAKLRDLGLKVVRLTAKSREDVESSVSNLALHNLVGRGAKGELKNLLKLKDEVGELSASDTKRFVKLVRKTEAEILNKADVVCCTCVGAGDKRLDTKFRTVLIDESTQASEPECLIPIVKGAKQVILVGDHQQLGPVILERKAADAGLKQSLFERLISLGHVPIRLEVQYRMNPYLSEFPSNMFYEGSLQNGVTIEQRTVPNSKFPWPIRGIPMMFWANYGREEISANGTSFLNRIEAMNCERIITKLFRDGVKPEQIGVITPYEGQRAYILQYMQMNGSLDKDLYIKVEVASVDAFQGREKDYIILSCVRANEQQAIGFLRDPRRLNVGLTRAKYGLVILGNPRSLARNTLWNHLLIHFREKGCLVEGTLDNLQLCTVQLVRPQPRKTERPMNAQFNVESEMGDFPKFQDFDAQSMVSFSGQIGDFGNAFVDNTELSSYINNEYWNFENFKSAFSQKQNRNEIDDRNLYQEEASHLNSNFARELQREEQKHELSKDFSNLGI
As to B1, the binding entry in test [1] is reported as “binds”.

B2: Edc3 (protein, UniProt P39998 1-551)
chain: MSQFVGFGVQVELKDGKLIQGKIAKATSKGLTLNDVQFGDGGKSQAFKVRASRLKDLKVLTVASQSGKRKQQRQQQQQNDYNQNRGEHIDWQDDDVSKIKQQEDFDFQRNLGMFNKKDVFAQLKQNDDILPENRLQGHNRKQTQLQQNNYQNDELVIPDAKKDSWNKISSRNEQSTHQSQPQQDAQDDLVLEDDEHEYDVDDIDDPKYLPITQSLNITHLIHSATNSPSINDKTKGTVINDKDQVLAKLGQMIISQSRSNSTSLPAANKQTTIRSKNTKQNIPMATPVQLLEMESITSEFFSINSAGLLENFAVNASFFLKQKLGGRARLRLQNSNPEPLVVILASDSNRSGAKALALGRHLCQTGHIRVITLFTCSQNELQDSMVKKQTDIYKKCGGKIVNSVSSLESAMETLNSPVEIVIDAMQGYDCTLSDLAGTSEVIESRIKSMISWCNKQRGSTKVWSLDIPNGFDAGSGMPDIFFSDRIEATGIICSGWPLIAINNLIANLPSLEDAVLIDIGIPQGAYSQRTSLRKFQNCDLFVTDGSLLLDL
Consider B2, for which the binding result in test [2] is given as “binds”.

B3: Scd6, P45978 1-349 (protein)
chain: MSQYIGKTISLISVTDNRYVGLLEDIDSEKGTVTLKEVRCFGTEGRKNWGPEEIYPNPTVYNSVKFNGSEVKDLSILDANINDIQPVVPQMMPPASQFPPQQAQSPPQAQAQAHVQTNPQVPKPESNVPAAVAGYGVYTPTSTETATASMNDKSTPQDTNVNSQSRERGKNGENEPKYQRNKNRSSNRPPQSNRNFKVDIPNEDFDFQSNNAKFTKGDSTDVEKEKELESAVHKQDESDEQFYNKKSSFFDTISTSTETNTNMRWQEEKMLNVDTFGQASARPRFHSRGLGRGRGNYRGNRGNRGRGGQRGNYQNRNNYQNDSGAYQNQNDSYSRPANQFSQPPSNVEF
For the molecule B3, in test [3], the binding result is “no binding”.

B4: Pat1, P25644 1-796 (protein)
chain: MSFFGLENSGNARDGPLDFEESYKGYGEHELEENDYLNDETFGDNVQVGTDFDFGNPHSSGSSGNAIGGNGVGATARSYVAATAEGISGPRTDGTAAAGPLDLKPMESLWSTAPPPAMAPSPQSTMAPAPAPQQMAPLQPILSMQDLERQQRQMQQQFMNFHAMGHPQGLPQGPPQQQFPMQPASGQPGPSQFAPPPPPPGVNVNMNQMPMGPVQVPVQASPSPIGMSNTPSPGPVVGATKMPLQSGRRSKRDLSPEEQRRLQIRHAKVEKILKYSGLMTPRDKDFITRYQLSQIVTEDPYNEDFYFQVYKIIQRGGITSESNKGLIARAYLEHSGHRLGGRYKRTDIALQRMQSQVEKAVTVAKERPSKLKDQQAAAGNSSQDNKQANTVLGKISSTLNSKNPRRQLQIPRQQPSDPDALKDVTDSLTNVDLASSGSSSTGSSAAAVASKQRRRSSYAFNNGNGATNLNKSGGKKFILELIETVYEEILDLEANLRNGQQTDSTAMWEALHIDDSSYDVNPFISMLSFDKGIKIMPRIFNFLDKQQKLKILQKIFNELSHLQIIILSSYKTTPKPTLTQLKKVDLFQMIILKIIVSFLSNNSNFIEIMGLLLQLIRNNNVSFLTTSKIGLNLITILISRAALIKQDSSRSNILSSPEISTWNEIYDKLFTSLESKIQLIFPPREYNDHIMRLQNDKFMDEAYIWQFLASLALSGKLNHQRIIIDEVRDEIFATINEAETLQKKEKELSVLPQRSQELDTELKSIIYNKEKLYQDLNLFLNVMGLVYRDGEISELK
Regarding B4, the binding result in test [1] was “binds”.
